Measurements from article PMC9253107, “Engineering of ultraID, a compact and hyperactive enzyme for proximity-dependent biotinylation in living cells” (Communications Biology, 2022).

The chains behind the UniProt entries cited, without tags or fusion partners.
UniProt Q9UKV8: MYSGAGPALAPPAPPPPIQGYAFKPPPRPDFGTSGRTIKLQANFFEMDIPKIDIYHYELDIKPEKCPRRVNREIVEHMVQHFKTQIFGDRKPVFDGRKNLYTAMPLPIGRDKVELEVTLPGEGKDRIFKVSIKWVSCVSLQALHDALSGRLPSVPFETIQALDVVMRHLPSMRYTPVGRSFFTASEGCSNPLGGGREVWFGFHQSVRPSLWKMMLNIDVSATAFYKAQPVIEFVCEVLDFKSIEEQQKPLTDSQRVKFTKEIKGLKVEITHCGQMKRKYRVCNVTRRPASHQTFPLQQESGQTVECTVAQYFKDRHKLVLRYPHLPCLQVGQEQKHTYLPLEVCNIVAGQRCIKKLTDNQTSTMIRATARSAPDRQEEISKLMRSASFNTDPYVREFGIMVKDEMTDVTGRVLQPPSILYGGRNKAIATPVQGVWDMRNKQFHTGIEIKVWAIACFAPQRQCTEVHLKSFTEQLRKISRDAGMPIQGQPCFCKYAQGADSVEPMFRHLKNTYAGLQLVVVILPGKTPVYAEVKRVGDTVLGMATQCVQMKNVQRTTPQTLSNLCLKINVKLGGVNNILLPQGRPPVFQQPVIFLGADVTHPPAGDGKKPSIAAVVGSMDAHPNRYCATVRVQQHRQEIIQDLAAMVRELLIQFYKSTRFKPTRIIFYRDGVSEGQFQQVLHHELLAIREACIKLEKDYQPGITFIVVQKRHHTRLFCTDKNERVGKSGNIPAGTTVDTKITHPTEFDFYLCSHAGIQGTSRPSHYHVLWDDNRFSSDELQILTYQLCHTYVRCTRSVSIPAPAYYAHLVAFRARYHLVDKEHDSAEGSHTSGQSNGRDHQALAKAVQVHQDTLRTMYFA
UniProt Q8NDV7: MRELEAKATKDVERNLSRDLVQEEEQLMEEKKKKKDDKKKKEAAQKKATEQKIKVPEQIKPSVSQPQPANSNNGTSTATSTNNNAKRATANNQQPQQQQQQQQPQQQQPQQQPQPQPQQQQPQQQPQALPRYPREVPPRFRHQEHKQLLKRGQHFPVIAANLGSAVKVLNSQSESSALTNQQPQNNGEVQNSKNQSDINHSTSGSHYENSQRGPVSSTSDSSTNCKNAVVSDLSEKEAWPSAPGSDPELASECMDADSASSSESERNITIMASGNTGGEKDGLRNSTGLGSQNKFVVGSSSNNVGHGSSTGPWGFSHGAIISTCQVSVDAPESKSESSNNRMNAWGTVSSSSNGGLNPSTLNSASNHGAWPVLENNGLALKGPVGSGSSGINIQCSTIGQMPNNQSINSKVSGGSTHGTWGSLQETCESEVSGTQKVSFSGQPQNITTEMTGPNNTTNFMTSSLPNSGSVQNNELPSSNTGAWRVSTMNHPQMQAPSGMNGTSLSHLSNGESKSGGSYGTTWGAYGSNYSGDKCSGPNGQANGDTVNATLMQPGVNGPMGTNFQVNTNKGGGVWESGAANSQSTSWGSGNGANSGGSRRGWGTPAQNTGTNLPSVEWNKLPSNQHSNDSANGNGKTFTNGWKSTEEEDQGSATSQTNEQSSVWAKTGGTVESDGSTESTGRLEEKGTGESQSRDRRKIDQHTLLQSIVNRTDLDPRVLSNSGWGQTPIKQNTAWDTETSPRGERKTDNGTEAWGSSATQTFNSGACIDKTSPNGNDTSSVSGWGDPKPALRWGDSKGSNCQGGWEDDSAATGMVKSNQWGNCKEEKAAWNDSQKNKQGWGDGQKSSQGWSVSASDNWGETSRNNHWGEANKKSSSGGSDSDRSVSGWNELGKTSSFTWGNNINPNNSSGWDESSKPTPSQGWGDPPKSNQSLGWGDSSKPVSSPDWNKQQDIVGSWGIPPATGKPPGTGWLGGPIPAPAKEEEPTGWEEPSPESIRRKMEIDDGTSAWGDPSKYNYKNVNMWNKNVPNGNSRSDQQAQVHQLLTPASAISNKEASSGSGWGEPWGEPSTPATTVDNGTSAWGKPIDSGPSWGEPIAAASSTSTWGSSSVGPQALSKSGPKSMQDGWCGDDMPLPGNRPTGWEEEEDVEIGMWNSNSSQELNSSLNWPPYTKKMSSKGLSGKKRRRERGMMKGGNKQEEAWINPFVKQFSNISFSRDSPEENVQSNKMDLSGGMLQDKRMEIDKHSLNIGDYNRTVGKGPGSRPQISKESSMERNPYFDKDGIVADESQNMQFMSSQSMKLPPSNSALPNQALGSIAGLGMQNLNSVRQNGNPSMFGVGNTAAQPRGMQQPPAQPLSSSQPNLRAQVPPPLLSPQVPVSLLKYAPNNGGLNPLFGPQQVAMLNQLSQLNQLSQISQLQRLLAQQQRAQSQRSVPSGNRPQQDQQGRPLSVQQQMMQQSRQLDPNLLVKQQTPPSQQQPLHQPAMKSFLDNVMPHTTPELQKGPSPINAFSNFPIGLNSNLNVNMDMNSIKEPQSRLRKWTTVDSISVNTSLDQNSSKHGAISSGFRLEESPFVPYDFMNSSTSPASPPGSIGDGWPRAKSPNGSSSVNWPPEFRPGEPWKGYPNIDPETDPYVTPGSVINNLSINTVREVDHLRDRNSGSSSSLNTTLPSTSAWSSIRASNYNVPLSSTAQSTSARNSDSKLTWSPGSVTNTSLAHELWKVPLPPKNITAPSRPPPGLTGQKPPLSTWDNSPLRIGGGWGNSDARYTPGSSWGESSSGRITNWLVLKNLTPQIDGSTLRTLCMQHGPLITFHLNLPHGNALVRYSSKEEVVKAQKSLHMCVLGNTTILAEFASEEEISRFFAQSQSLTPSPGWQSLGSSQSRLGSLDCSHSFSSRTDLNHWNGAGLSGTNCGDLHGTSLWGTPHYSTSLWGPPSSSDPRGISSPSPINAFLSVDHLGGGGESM
UniProt Q9UPQ9: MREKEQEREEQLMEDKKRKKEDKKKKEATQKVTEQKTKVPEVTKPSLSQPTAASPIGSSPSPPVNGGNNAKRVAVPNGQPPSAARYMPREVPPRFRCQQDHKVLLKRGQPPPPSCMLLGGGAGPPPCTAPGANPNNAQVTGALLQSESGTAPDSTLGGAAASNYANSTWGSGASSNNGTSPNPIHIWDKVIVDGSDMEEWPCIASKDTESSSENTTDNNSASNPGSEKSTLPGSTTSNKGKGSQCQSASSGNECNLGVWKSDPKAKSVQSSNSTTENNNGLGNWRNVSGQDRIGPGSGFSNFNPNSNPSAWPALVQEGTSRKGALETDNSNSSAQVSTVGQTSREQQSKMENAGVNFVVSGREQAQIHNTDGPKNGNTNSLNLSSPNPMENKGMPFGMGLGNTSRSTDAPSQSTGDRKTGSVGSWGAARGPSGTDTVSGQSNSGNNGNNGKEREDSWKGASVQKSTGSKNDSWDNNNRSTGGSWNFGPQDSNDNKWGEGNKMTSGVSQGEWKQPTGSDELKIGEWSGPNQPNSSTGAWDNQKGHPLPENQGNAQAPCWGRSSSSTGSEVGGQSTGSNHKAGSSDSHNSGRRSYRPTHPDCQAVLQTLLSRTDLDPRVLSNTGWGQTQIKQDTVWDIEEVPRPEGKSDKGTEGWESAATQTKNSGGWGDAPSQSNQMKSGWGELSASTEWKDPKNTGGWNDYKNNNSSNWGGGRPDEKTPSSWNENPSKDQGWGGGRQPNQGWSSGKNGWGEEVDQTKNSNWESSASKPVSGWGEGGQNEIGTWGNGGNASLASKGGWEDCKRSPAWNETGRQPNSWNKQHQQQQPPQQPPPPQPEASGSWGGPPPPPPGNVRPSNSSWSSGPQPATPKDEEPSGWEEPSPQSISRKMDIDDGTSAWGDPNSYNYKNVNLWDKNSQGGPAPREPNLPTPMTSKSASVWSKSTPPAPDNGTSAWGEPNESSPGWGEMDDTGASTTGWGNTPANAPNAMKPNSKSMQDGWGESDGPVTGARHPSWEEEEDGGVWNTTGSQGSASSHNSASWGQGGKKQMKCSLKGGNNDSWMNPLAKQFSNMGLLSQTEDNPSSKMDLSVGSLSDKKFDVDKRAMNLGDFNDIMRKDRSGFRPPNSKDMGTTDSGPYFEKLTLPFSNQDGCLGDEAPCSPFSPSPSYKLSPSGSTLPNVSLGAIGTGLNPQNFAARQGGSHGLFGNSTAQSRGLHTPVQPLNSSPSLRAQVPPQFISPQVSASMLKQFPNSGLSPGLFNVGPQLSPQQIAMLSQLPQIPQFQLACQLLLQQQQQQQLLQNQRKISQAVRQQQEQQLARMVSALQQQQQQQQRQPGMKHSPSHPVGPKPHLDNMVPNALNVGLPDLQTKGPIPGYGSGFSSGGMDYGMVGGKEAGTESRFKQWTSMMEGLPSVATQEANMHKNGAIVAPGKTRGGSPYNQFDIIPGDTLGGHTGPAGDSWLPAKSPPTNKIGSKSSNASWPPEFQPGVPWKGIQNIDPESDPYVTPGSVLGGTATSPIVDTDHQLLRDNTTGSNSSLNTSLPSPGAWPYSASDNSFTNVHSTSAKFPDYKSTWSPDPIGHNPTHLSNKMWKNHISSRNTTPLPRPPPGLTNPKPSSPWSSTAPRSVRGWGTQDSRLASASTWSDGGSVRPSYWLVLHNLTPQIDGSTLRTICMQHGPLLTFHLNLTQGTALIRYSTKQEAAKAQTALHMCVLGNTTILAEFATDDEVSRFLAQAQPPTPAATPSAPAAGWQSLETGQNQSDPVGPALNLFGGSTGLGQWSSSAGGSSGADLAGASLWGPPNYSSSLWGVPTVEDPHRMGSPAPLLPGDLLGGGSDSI
UniProt Q8IZH2: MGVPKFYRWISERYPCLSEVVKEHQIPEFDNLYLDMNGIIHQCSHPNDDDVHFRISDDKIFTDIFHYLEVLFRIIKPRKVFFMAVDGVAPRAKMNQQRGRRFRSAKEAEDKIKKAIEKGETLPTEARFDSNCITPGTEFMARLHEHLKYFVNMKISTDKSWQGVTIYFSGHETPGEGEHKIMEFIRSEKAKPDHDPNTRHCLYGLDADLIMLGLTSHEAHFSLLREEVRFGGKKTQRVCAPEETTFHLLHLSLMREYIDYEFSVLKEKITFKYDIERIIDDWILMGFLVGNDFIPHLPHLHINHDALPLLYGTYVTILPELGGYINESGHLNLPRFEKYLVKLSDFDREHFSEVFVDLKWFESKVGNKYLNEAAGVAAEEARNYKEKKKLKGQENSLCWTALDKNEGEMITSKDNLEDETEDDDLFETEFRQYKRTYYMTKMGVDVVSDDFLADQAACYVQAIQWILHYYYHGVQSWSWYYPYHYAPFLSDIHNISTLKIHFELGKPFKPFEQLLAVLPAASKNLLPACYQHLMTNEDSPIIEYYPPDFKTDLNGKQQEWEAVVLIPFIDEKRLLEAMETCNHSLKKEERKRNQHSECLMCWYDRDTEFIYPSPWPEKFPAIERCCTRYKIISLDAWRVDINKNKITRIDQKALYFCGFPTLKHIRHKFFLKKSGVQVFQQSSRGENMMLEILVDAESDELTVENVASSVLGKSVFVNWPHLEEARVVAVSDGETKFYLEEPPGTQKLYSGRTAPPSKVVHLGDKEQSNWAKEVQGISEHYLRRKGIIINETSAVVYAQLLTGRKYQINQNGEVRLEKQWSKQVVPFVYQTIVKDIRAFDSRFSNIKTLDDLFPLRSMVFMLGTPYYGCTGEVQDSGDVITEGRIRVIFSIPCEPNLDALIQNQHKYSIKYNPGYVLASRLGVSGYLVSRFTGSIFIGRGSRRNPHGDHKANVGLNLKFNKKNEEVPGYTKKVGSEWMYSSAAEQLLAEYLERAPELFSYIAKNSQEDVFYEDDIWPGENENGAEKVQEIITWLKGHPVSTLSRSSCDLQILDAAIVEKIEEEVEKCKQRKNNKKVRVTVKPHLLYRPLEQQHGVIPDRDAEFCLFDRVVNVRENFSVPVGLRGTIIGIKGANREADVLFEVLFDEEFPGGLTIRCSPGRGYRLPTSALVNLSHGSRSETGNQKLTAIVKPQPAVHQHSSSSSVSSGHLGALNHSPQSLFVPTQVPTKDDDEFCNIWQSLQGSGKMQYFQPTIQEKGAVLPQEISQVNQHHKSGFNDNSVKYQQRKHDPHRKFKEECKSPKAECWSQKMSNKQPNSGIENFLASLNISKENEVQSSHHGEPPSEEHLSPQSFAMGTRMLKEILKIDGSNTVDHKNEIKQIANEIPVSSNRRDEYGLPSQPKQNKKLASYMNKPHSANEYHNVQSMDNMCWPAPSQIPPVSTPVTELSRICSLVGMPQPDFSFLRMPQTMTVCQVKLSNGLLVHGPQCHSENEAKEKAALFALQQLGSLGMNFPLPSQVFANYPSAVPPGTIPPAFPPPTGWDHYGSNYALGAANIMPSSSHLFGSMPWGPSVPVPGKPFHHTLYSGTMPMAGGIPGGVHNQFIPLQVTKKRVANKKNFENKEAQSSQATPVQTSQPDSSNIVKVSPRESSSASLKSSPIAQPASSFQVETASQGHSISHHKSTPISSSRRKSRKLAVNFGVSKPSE

Assays:
[1] = target: ultraID-Ago2 (UniProt Q9UKV8); assay: proximity labelling; ultraID-Ago2 or TurboID-Ago2 in doxycycline-induced HeLa 11ht lines, 50 uM biotin for 10 min at 37 °C; streptavidin pulldown in RIPA buffer, on-bead trypsin digestion, LC-MS/MS; enrichment (LFQ, proDA) against the matching Rab11 fusion; four biological replicates
[2] = target: BioID-Ago2 (UniProt Q9UKV8); assay: proximity labelling; BioID-Ago2 in doxycycline-induced HeLa 11ht line, 50 uM biotin overnight (added with doxycycline, 24 h); streptavidin pulldown, on-bead trypsin digestion, LC-MS/MS; enrichment (LFQ, proDA) against BioID-Rab11; four biological replicates
[3] = target: TurboID-Ago2 (UniProt Q9UKV8); assay: proximity labelling; HeLa 11ht lines expressing TurboID or ultraID fusions of Ago2 or Rab11, no biotin added (background labeling); streptavidin pulldown, LC-MS/MS, abundance by iBAQ; n = 3 (Ago2 lines) or 4 (Rab11 lines)

Substance | binding [1] | binding [2] | binding [3]
FXR2 (from UniProt P51116 1-673) | binds |  | 
FXR1 (from UniProt P51114 1-621) | binds |  | 
Dicer (from UniProt Q9UPY3 1-1922) | binds | binds | 
PUM1 (from UniProt Q14671 1-1186) | binds |  | 
CNOT1 (from UniProt A5YKK6 1-2376) | binds | binds | 
TNRC6A (from UniProt Q8NDV7 1-1962) |  |  | binds

More lines, now with the values ahead:

binding [1] | binding [2] | binding [3] | Substance
 | binds |  | PABPC1 (from UniProt P11940 1-636)
 |  | binds | TNRC6B (from UniProt Q9UPQ9 1-1833)
binds | binds |  | XRN1 (from UniProt Q8IZH2 1-1706)

These are yes or no findings as the source states them, for the method shown. In cells and extracts the contact can be indirect. A yes stands for co-enrichment or nearness to the bait. Other partners may have been found.
